# Assay results published in doi:10.1101/672824.
# Amino acid sequences for entries named in this document (tags omitted).
# UniProt O08791: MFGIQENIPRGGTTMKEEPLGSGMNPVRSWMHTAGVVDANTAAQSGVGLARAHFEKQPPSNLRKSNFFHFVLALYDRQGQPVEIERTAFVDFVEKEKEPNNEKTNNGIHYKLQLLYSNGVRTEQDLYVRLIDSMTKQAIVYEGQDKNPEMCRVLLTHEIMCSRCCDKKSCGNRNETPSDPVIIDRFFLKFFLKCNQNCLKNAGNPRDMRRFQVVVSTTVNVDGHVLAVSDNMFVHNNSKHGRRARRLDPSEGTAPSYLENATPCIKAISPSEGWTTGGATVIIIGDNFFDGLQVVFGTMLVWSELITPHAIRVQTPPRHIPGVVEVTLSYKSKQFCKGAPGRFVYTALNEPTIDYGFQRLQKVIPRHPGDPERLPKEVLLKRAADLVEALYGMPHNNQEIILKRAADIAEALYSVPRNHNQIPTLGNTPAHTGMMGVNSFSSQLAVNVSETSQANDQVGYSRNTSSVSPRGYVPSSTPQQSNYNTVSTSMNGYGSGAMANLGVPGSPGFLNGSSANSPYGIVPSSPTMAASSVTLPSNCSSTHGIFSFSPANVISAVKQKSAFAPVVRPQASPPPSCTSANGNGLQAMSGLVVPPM
# UniProt P22091: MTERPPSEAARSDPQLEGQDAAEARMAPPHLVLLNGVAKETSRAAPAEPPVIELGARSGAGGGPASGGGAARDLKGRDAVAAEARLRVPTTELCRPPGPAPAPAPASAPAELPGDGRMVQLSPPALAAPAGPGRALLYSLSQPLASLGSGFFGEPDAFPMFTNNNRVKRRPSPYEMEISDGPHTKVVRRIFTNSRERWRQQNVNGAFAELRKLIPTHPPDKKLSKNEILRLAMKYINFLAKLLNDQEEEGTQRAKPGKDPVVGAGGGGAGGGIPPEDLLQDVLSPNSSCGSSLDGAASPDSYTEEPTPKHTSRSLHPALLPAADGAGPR
# UniProt Q9D030: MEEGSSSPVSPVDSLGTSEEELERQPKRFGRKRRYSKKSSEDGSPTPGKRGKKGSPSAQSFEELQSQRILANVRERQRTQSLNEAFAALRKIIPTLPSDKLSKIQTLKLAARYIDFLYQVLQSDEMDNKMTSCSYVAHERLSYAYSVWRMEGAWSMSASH
# UniProt Q61079: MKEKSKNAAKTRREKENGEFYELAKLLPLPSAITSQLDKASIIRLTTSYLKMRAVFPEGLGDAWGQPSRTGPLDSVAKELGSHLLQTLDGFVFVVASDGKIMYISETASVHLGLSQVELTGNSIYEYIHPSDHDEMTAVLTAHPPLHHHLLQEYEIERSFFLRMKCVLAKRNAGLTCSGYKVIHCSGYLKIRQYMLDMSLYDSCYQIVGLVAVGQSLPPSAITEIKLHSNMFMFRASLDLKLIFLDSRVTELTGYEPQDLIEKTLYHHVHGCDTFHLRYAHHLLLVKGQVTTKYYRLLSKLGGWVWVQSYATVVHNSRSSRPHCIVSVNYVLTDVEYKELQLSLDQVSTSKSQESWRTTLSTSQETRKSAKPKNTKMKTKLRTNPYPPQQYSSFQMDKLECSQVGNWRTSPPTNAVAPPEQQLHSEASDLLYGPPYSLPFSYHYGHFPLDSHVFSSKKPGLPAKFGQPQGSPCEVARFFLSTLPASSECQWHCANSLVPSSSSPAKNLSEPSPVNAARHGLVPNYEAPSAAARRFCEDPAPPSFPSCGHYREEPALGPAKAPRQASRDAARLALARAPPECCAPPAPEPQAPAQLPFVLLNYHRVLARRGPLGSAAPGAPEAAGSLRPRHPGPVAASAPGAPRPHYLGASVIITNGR
# UniProt Q60722: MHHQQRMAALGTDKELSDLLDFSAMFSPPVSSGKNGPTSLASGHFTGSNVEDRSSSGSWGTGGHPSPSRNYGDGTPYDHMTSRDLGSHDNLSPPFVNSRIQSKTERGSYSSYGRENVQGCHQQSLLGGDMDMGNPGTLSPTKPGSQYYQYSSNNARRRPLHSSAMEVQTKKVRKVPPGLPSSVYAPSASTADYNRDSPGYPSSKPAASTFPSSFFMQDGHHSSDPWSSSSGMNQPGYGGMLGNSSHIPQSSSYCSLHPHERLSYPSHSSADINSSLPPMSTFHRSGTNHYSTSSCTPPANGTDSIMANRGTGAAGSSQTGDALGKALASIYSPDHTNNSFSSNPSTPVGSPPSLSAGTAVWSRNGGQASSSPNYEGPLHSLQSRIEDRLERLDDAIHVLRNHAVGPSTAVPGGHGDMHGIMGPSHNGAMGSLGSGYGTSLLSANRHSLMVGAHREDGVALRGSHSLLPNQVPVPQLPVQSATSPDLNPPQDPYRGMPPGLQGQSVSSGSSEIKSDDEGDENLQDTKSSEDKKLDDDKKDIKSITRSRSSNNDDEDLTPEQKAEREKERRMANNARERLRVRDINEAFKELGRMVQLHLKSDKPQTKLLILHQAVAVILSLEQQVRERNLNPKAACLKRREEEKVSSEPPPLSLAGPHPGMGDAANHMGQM
# UniProt Q61286: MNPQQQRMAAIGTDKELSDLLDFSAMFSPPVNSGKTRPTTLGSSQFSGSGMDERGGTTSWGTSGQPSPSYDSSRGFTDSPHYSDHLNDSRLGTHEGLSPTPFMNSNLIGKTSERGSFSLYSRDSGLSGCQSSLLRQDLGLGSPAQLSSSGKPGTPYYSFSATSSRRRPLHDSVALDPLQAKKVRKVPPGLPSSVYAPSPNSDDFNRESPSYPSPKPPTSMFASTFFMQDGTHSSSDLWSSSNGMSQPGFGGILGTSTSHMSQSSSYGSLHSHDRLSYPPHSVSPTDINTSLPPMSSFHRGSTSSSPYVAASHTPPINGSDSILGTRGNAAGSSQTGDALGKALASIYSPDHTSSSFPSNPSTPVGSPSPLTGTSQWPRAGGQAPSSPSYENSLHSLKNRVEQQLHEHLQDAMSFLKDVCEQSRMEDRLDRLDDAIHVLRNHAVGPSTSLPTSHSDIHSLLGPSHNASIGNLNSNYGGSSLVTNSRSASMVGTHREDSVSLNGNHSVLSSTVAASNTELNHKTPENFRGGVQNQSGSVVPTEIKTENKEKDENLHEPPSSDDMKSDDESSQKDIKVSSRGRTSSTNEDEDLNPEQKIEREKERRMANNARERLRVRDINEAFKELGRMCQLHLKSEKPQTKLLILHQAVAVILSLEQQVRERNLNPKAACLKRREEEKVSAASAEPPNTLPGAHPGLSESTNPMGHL
# UniProt P15806: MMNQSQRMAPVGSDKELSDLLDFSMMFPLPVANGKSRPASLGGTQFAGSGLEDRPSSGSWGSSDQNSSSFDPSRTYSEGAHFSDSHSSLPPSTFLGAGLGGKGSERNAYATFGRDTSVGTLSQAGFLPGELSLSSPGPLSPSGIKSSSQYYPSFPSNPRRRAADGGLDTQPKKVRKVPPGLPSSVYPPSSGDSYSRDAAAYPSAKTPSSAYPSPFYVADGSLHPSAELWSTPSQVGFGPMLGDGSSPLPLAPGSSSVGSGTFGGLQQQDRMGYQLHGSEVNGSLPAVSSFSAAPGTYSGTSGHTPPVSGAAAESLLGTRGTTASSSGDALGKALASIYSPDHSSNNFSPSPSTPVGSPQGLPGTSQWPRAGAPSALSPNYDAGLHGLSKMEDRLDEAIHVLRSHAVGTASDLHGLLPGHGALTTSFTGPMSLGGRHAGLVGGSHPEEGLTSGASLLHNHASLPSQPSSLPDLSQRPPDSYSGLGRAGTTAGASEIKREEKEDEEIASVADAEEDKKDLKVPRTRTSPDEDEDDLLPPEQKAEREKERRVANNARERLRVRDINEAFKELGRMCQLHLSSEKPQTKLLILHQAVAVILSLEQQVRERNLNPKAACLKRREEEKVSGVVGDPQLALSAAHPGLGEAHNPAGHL
# No constants are given. Whether binding was seen depends on the method and setting. Binding seen in cells or lysates may run through a third protein. Some binding calls cover weakened binding; strength is not graded here. For some assays here: Sequences can lack the tags named with a protein.
# T1: HA-tagged EBF1 (pCMV-Ebf1-HA) (UniProt Q07802)
# T1 sequence: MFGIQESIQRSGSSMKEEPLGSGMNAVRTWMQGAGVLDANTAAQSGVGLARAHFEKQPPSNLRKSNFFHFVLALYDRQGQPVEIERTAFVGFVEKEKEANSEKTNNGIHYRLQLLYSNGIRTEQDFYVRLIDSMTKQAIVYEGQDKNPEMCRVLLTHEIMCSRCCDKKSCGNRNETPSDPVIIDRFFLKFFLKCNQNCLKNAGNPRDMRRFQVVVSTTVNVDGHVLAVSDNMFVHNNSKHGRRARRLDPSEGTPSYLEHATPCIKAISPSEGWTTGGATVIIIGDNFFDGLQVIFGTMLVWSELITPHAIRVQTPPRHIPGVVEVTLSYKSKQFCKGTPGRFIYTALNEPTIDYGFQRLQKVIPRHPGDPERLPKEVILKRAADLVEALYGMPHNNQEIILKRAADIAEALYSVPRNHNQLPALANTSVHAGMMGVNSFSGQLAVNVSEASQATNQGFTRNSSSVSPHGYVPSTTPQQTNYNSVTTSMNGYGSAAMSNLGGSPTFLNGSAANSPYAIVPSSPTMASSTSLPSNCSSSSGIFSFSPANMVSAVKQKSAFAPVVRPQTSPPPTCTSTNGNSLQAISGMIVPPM
# B1: wild-type TWIST1 BiFC fusions (TWIST1-CC155 and TWIST1-VN173) (protein, UniProt P26687 1-206)
# chain: MMQDVSSSPVSPADDSLSNSEEEPDRQQPASGKRGARKRRSSRRSAGGSAGPGGATGGGIGGGDEPGSPAQGKRGKKSAGGGGGGGAGGGGGGGGGSSSGGGSPQSYEELQTQRVMANVRERQRTQSLNEAFAALRKIIPTLPSDKLSKIQTLKLAARYIDFLYQVLQSDELDSKMASCSYVAHERLSYAFSVWRMEGAWSMSASH
# B2: HA-tagged EBF1 (pCMV-Ebf1-HA) (protein, UniProt Q07802 1-591)
# chain: T1 sequence
# Tests used:
# [1] = target: human TWIST1 (hTWIST1) stably over-expressed in MDCK cells (human) (UniProt Q15672); experiment: co-IP
# [2] = target: HA-tagged EBF3 (pCMV-Ebf3-HA) (UniProt O08791); experiment: co-IP
# [3] = target: HA-tagged TAL1 (pCMV-Tal1-HA) (UniProt P22091); experiment: co-IP
# [4] = target: HA-tagged TWIST2 (pCMV-Twist2-HA) (UniProt Q9D030); experiment: co-IP
# [5] = target: HA-tagged SIM2 (pCMV-Sim2-HA) (UniProt Q61079); experiment: co-IP
# [6] = target: HA-tagged TCF4 (pCMV-Tcf4-HA) (UniProt Q60722); experiment: co-IP
# [7] = target: T1, HA-tagged EBF1 (pCMV-Ebf1-HA); experiment: co-IP
# [8] = target: wild-type TWIST1 BiFC fusions (TWIST1-CC155 and TWIST1-VN173) (mouse) (UniProt P26687); experiment: split reporter
# TCF12-CrN173 (mouse) = TCF12-CrN173 (mouse) (UniProt Q61286); experiment: split reporter
molecule,measurement,setting,value
HA-tagged TWIST2 (pCMV-Twist2-HA) (from UniProt Q9D030 1-160),binding,[1],binds
human TWIST1 (hTWIST1) stably over-expressed in MDCK cells (from UniProt Q15672 1-202),binding,[2],binds
same,binding,[3],binds
same,binding,[4],binds
same,binding,[5],binds
same,binding,[6],binds
same,binding,[7],binds
HA-tagged SIM2 (pCMV-Sim2-HA) (from UniProt Q61079 1-657),binding,[1],binds
HA-tagged TAL1 (pCMV-Tal1-HA) (from UniProt P22091 1-329),binding,[1],binds
HA-tagged EBF3 (pCMV-Ebf3-HA) (from UniProt O08791 1-596),binding,[1],binds
HA-tagged TCF3 (pCMV-Tcf3-HA) (from UniProt P15806 1-651),binding,[1],binds
B1,binding,[8],binds
same,binding,TCF12-CrN173 (mouse),binds
B2,binding,[1],binds
